The values that follow come from PubChem BioAssay AID330 (DTP/NCI, 2004).

In this assay the test system is P388 leukemia ip, CD2F1 mice, survival T/C. Kind of assay: NCI In Vivo Anticancer Drug Screen. Data for tumor model P388 Leukemia (intraperitoneal) in CD2F1 (CDF1) mice. The note with it: T/C endpoint: median survival time, higher T/C = longer survival.
The mark [1] stands for this setting: dose: 25.0 mg/kg/injection, schedule: Q01DX005 (ip), vehicle: Klucel (hydroxypropylcellulose) (HPC).
The mark [2] stands for this setting: dose: 50.0 mg/kg/injection, schedule: Q01DX005 (ip), vehicle: Klucel (hydroxypropylcellulose) (HPC).
Setting [3] is: dose: 100.0 mg/kg/injection, schedule: Q01DX005 (ip), vehicle: Klucel (hydroxypropylcellulose) (HPC).
[4] abbreviates: dose: 200.0 mg/kg/injection, schedule: Q01DX005 (ip), vehicle: Klucel (hydroxypropylcellulose) (HPC).
Setting [5] is: dose: 200.0 mg/kg/injection, schedule: Q01DX005 (ip), vehicle: saline.
Setting [6] is: dose: 100.0 mg/kg/injection, schedule: Q01DX005 (ip), vehicle: saline with Tween-80.
The mark [7] stands for this setting: dose: 200.0 mg/kg/injection, schedule: Q01DX005 (ip), vehicle: saline with Tween-80.
Setting [8] is: dose: 200.0 mg/kg/injection, schedule: Q01DX009 (ip), vehicle: saline with Tween-80.

Molecules are shown by their SMILES. The list shows only some results of the screen, not a fair sample: it is rich in T/C values a quarter to a half above the control, in often repeated tests (any T/C) and in doses without a T/C. Further doses and runs are listed elsewhere. T/C gives the treated animals as a percentage of the vehicle group. Some entries give survivors of the animals treated and no T/C: the source files T/C as zero there, which appears to mark a toxic dose or a test without result, not a measured value. Some doses without a T/C left all or most animals alive at the check, yet need not have been tolerated: the source hardly ever lists a survival T/C far under the control, and the zero likely stands for such cases as well. Survivors were counted at the toxicity check, usually on the fifth day, unless a day is given; later deaths do not show. Schedule codes are those of the source, taken here to give the interval after Q, in days (D) or hours (H), and the number of doses after X. Some entries hold several experiments; the values are given in rising order. Marks such as (2×) say how often a value occurs here. For survival time, this PubChem deposit counts one and a half times the control or more as active, and values a quarter to a half above the control carry no call in these data; other NCI protocols may use other cut-offs. Some T/C values are followed by the survivors on the day toxicity was checked, most often the fifth; without a count, all were alive then.

As for `CC(=O)Nc1ccc(S(=O)(=O)n2c(=O)oc3cc(Br)ccc32)cc1`, the survivor count is given as 6 of 6 under setting [1], 5 of 6 under setting [2], 6 of 6 under setting [3] and 6 of 6 under setting [4].

With `CCCCOCC(=O)O`, the survivor count (dose: 200.0 mg/kg/injection, schedule: Q01DX009 (ip), vehicle: saline) was 4 of 6.

For the molecule `CN(C)CCOc1cccc(NC2=C(Cl)C(=O)C(Nc3cccc(OCCN(C)C)c3)=C(Cl)C2=O)c1`, the survivor count is 3 of 6 and 4 of 6 (2×) (dose: 12.5 mg/kg/injection, schedule: Q01DX005 (ip), vehicle: Klucel (hydroxypropylcellulose) (HPC)); 1 of 6 under setting [1]; 0 of 5 under setting [2]; 0 of 5 under setting [3]; 0 of 5 under setting [4].

Consider `CCCCN1COC2CCCCC21` (stereo not drawn), for which the T/C is, setting by setting: (dose: 50.0 mg/kg/injection, schedule: Q01DX005 (ip), vehicle: saline) 125 and 127 % of control; (dose: 100.0 mg/kg/injection, schedule: Q01DX005 (ip), vehicle: saline) 130 % of control; under setting [5], 128 % of control. In addition, the survivor count under setting [5] was 2 of 6.

`CN(c1ccccc1)c1cc2c(cc1[N+](=O)[O-])no[n+]2[O-]`: the survivor count was 6 of 6 (dose: 15.0 mg/kg/injection, schedule: Q01DX009 (ip), vehicle: saline) and 5 of 6 (dose: 30.0 mg/kg/injection, schedule: Q01DX009 (ip), vehicle: saline).

For the molecule `CC(C)(C)n1nc(C2CC2)cc1NC(=O)Nc1ccccc1`, the survivor count (dose: 240.0 mg/kg/injection, schedule: Q01DX005 (ip), vehicle: Klucel (hydroxypropylcellulose) (HPC)) is recorded as 6 of 6.

In the case of `Clc1cccc(NN=Nc2ccccc2)c1`, the survivor count (dose: 400.0 mg/kg/injection, schedule: Q01DX009 (ip), vehicle: Klucel (hydroxypropylcellulose) (HPC)) was 0 of 6.

`O=c1n(-c2ccccc2)c(=O)n2n1CC(c1ccccc1)=N2`: the survivor count runs as follows: (dose: 25.0 mg/kg/injection, schedule: Q01DX009 (ip), vehicle: other) 6 of 6; (dose: 50.0 mg/kg/injection, schedule: Q01DX009 (ip), vehicle: other) 6 of 6.

On to `Clc1ccccc1Nc1c2ccccc2nc2ccccc12`, for which the T/C (dose: 200.0 mg/kg/injection, schedule: Q04DX003 (ip), vehicle: saline) was 127 % of control.

For the molecule `COc1ccc2c(c1)CCC1C2CCC2(C)/C(=N/O)C(Cl)C(O)C12` (stereo not drawn), the survivor count is 0 of 6 (dose: 100.0 mg/kg/injection, schedule: Q01DX001 (ip), vehicle: saline + alcohol); 0 of 6 (dose: 200.0 mg/kg/injection, schedule: Q01DX001 (ip), vehicle: saline + alcohol); 0 of 6 (dose: 400.0 mg/kg/injection, schedule: Q01DX001 (ip), vehicle: saline + alcohol).

Take `Cc1cccc(NCc2ccncc2)n1`: the survivor count under setting [6] was 0 of 6 and the survivor count under setting [7] was 0 of 6.

For `COc1cc(/C=C2\C(=O)C=C(C)CC2(C)C)ccc1O`, the survivor count (dose: 200.0 mg/kg/injection, schedule: Q04DX003 (ip), vehicle: saline with Tween-80) is on record as 6 of 6.

Consider `COc1cc2c(c3c1c(=O)c1ccccc1n3C)C=CC(C)(C)O2`, for which the survivor count reads like this: under setting [4], 2 of 6; under setting [7], 0 of 6; (dose: 400.0 mg/kg/injection, schedule: Q01DX005 (ip), vehicle: Klucel (hydroxypropylcellulose) (HPC)) 0 of 6.

As for `c1ccc2c(NCCCNCCCNc3c4ccccc4nc4ccccc34)c3ccccc3nc2c1`, where the note is “dose: 2.5 mg/kg/injection, schedule: Q01DX009 (ip), vehicle: other”, the T/C is 127 % of control [4 of 6 alive]. The survivor count (dose: 5.0 mg/kg/injection, schedule: Q01DX009 (ip), vehicle: other) is listed as 0 of 6; the survivor count (dose: 10.0 mg/kg/injection, schedule: Q01DX009 (ip), vehicle: other) is 0 of 6; the survivor count (dose: 20.0 mg/kg/injection, schedule: Q01DX009 (ip), vehicle: other) was 0 of 6.

In the case of `NNC(=O)c1cccc2ccccc12`, the survivor count was 0 of 5 (dose: 50.0 mg/kg/injection, schedule: Q01DX005 (ip), vehicle: saline with Tween-80); 0 of 5 under setting [6]; 0 of 5 under setting [7].

With `c1cnc2ncncc2n1`, the T/C is 129 % of control (dose: 100.0 mg/kg/injection, schedule: Q01DX009 (ip), vehicle: saline with Tween-80) and 138 % of control [5 of 6 alive] under setting [8]. Besides, the survivor count (dose: 400.0 mg/kg/injection, schedule: Q01DX009 (ip), vehicle: saline with Tween-80) is reported as 0 of 6.

Regarding `CCCCCN(CCCCC)C(C)C(O)c1ccc2cc(Cl)c3ccccc3c2c1` (stereo not drawn), under setting [7], the survivor count is on record as 1 of 5.

`CC(NC(=O)c1cccc2c1Oc1ccccc1S2)C(=O)O` (stereo not drawn): the survivor count by setting is: (dose: 100.0 mg/kg/injection, schedule: Q04DX002 (ip), vehicle: saline with Tween-80) 6 of 6; (dose: 400.0 mg/kg/injection, schedule: Q04DX002 (ip), vehicle: saline with Tween-80) 0 of 6.

Regarding `Cc1cc[n+](C2=C(Nc3ccccc3)C(=O)c3ccccc3C2=O)cc1`, the survivor count under setting [7] is given as 0 of 6.

As for `Cc1nc(N)[nH]c(=O)c1N`, the survivor count under setting [4] is reported as 0 of 5.

With `CC(C)NC(=O)OCc1c(COC(=O)NC(C)C)c(S(=O)c2ccccc2)n2c1CCC2` (stereo not drawn), the T/C (dose: 200.0 mg/kg/injection, schedule: Q01DX005 (ip), vehicle: distilled water + Tween-80) is 125 % of control.

Consider `CC([NH-])CC(C)[NH-].[I][Pt+2][I]` (stereo not drawn), for which the T/C is, setting by setting: (dose: 6.25 mg/kg/injection, schedule: Q04DX002 (ip), vehicle: saline with Tween-80) 139 % of control; (dose: 12.5 mg/kg/injection, schedule: Q04DX002 (ip), vehicle: saline with Tween-80) 148 % of control. In addition, the survivor count by setting is: (dose: 25.0 mg/kg/injection, schedule: Q04DX002 (ip), vehicle: saline with Tween-80) 6 of 6; (dose: 50.0 mg/kg/injection, schedule: Q04DX002 (ip), vehicle: saline with Tween-80) 2 of 6 and 4 of 6.

Consider `CC(Nc1nccs1)Nc1nccs1`, for which the survivor count under setting [8] is recorded as 3 of 6.

Regarding `CCCCCCCCCCCCC[N+](C)([O-])CCCCCC[N+](C)([O-])CCCCCCCCCCCCC` (stereo not drawn), the survivor count by setting is: (dose: 100.0 mg/kg/injection, schedule: Q01DX009 (ip), vehicle: Klucel (hydroxypropylcellulose) (HPC)) 4 of 6; (dose: 200.0 mg/kg/injection, schedule: Q01DX009 (ip), vehicle: Klucel (hydroxypropylcellulose) (HPC)) 0 of 6.
